Whole data set: some 33,000 sequences, median “E-score (-0.5 to 0.5)” near -8e-05, cut for the highest 2% near 0.23. This is one part of the list.
The sequences below were run against T1, Nrg2 (UniProt P38082) (assay: PBM E-score (8-mer binding enrichment) (E-score (-0.5 to 0.5)); higher = stronger / more preferred TF binding). Settings: protein concentration: 100 nM; construct: GST-full length.
T1 sequence: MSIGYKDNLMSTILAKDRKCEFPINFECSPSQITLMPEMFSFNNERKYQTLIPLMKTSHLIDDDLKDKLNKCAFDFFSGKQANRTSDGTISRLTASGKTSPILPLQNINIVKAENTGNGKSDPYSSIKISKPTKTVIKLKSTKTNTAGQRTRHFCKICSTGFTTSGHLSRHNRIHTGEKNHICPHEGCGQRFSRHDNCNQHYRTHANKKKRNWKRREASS
Procedure, shortened: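 Using PURExpress in vitro transcription/translation, GST-tagged yeast transcription factors were made in full-length or DNA-binding-domain form. These were applied at about 100-200 nM to double-stranded universal all-10-mer Agilent arrays, and bound protein was detected with fluorescent anti-GST. Scans were normalised with masliner before the Universal PBM Analysis Suite assigned E-scores to ungapped eight-base words pooled with their reverse complements.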

Sequence | PBM E-score
ATGTCATG | 0.0722
ATTCTATA | 0.0728
TCCTATCA | -0.053
ATACGCTG | 0.043
GGACGAGA | 0.0326
CTAAGGTC | -0.0369
CATGGGCG | -0.0413
CTACAAGC | 0.0607
ACAAAATG | -0.0223
CTCGTTCC | 0.135
GGTAGCGA | -0.0206
CTCGCATA | 0.034
ACTAGTCA | -0.0955
AAGGGTTG | 0.167
AAGTTACC | 0.145
CCGGCCCA | -0.303
CTACGAAC | 0.0458
CCCGATAC | -0.0132
GTGCCAAA | -0.0122
AAATATCA | 0.103
ATACAGAT | 0.157
TCTGAACA | 0.0152
CTATTAGA | -0.0491
ATGGTCTA | -0.0555
CCAATAGG | -0.102

Looked up above.
CTAAGGTC | PBM E-score: -0.0369
GGACGAGA | PBM E-score: 0.0326
TCTGAACA | PBM E-score: 0.0152
ACAAAATG | PBM E-score: -0.0223
ATACGCTG | PBM E-score: 0.043
ACTAGTCA | PBM E-score: -0.0955
CCCGATAC | PBM E-score: -0.0132

Another view of some results above:
Sequence	PBM E-score
TCCTATCA	-0.053
GGACGAGA	0.0326
CATGGGCG	-0.0413
CTACAAGC	0.0607
CTCGTTCC	0.135
AAGTTACC	0.145

Next part.

Sequence | PBM E-score
GAAACGTC | -0.109
AGAGTGAT | 0.161
GTTAATTA | 0.204
CTTTAACA | -0.118
ATGTCAGC | 0.0531
ACGGTTCT | -0.137
AGCCGGGA | -0.132
CTACTTTC | 0.116
ATGTTCTC | -0.0462
AACGGACG | -0.0834
CGCGGCGA | 0.131
CTTTGTGC | -0.00409
TCCACTCA | 0.0334
ATCGAGTA | 0.0604
AGTTATGA | 0.0207
CCGCATTA | -0.0232
ATACCCTC | 0.0223
AAAATAAA | 0.0957
GTTGAGGA | -0.104
GTGTGCGA | -0.00287
CGGTCGAC | -0.0395
CGGTTGTA | -0.147
TGATGCCA | 0.035
ATTCAAAA | 0.201
CGGCGAAC | -0.0868

Sequence | PBM E-score
ACGAACTA | 0.0901
CTCTTCAA | -0.256
AAACTGAC | -0.00747
GATTTTCC | -0.0202
ACTAATAG | 0.135
GTACTGTA | -0.101
ATGGCGAC | -0.078
TCGGTCCA | -0.0618
AGCGAAGA | -0.106
AAGCTCCG | 0.00761
CCCGTTAC | 0.00497
TCGTCAAA | 0.121
AAACACAG | 0.147
CTACGGTA | -0.0723
CGGGGTGC | 0.0228
GAAGAAGA | -0.0608
CTGCTGTA | -0.0474
GAGATGTA | 0.0863
CCTGCTTA | 0.0296
AAACTGCT | -0.114
AACTGCCT | 0.0785
CTTGTTAA | 0.0818
CGTACGAA | 0.00904
ATCCCCTC | 0.0203
AAACTGTC | -0.0754

Sequence | PBM E-score
ATAATGTC | 0.121
AGTACAGG | 0.186
GCGAAAGC | -0.0231
AAAGAAGG | -0.135
AGCATTTG | 0.0316
CGGCTGGC | -0.107
CCGTAACA | -0.112
ACACGACG | 0.0478
ATTTGTCA | -0.00577
ATGTAAGA | 0.137
ATGCACAT | 0.0459
ACTTCCAA | -0.0119
CCGGGGAG | -0.197
ACCAGGGA | 0.122
AACTATGT | -0.00714
ACTAGAAT | 0.0815
AATCAAGT | 0.0614
ACGCGCAA | 0.142
CAAACCGC | 0.0887
GCAGTCAC | -0.195
ACCACCTG | 0.0551
GTGACTCA | -0.0464
ACAGATTG | 0.082
GATAAAGA | 0.0732
AATTGTTG | -0.14

Sequence | PBM E-score
CACTCATA | 0.035
CGATGCCA | -0.159
AAGGGCTC | -0.192
ACTTCAAA | -0.0398
ACCCTTCG | 0.0838
CAAAGTAA | 0.0919
AATTTGGA | -0.143
ACCAATGC | 0.142
AGAATTGG | 0.0829
CCGGAAAA | 0.0381
CGATATAA | 0.244
CCATCCGG | -0.12
CTACACAG | -0.016
GTAGGCAC | -0.155
CAAGTCGG | 0.0707
AACGATTC | 0.0537
ACTTTCGG | -0.108
CCGGATAG | 0.0119
ACCAAAAG | -0.042
GGGGCATA | 0.031
AATGCAGC | -0.106
CGCGGTAC | 0.0374
TACATCCA | 0.017
TCATAAGA | -0.184
ACCGAGTG | -0.0524

Sequence | PBM E-score
TAATTTCA | 0.194
CCTGGGCC | -0.0335
AGGCTGCG | 0.0178
CCAGTAAA | 0.0921
GACTCTAA | 0.0462
TCATCCCA | -0.175
AGTATTCA | 0.0817
GTGGAAGA | -0.159
CGACCGGA | -0.12
ACCGGCGG | -0.11
CCTTTAAG | -0.0435
TATTGAGA | 0.0404
GTAAGTCA | -0.0106
ACTGGCGG | -0.101
CTAGGTGC | -0.111
CGGCCGAC | 0.175
ACAGAGAA | 0.111
CGAAAAAG | 0.137
ACGCCCGA | 0.0699
ACTTCCCA | 0.00528
CCTGTAAG | -0.15
GCATCAAC | 0.108
AAAATTTA | 0.00421
AACCGCGT | 0.0966
CTAGGAGA | -0.18

Sequence | PBM E-score
CACGTTCG | -0.105
ATACAAAC | 0.258
ATAGGCCG | -0.153
CACAGGTC | -0.0948
GTACTTAA | -0.079
CCCCTAAG | 0.0238
GAATTGGA | 0.0328
CGTTGCCC | -0.0711
CATGAACC | 0.233
CACGTAGC | -0.266
TTAATAAA | 0.201
TGACTCCA | -0.192
GTAATGGA | 0.188
GACCATGC | -0.0321
AAGACTTC | -0.17
CCGTCAGG | -0.1
ACTCCTGG | -0.0451
CCGATACG | -0.0651
AACGAACA | 0.148
GGCGCCGA | 0.0298
AGCCTGCC | -0.122
TCCAAAAA | -0.0003
CAACGTCA | -0.0824
GAGACCGA | -0.078
AGTGACCG | -0.126

Sequence | PBM E-score
ACGTCTAG | 0.00915
CCTGGCTC | 0.0122
GCCTAGGC | -0.00779
ACTCACGG | 0.117
CCGACGAA | 0.107
CAGTAAGA | 0.0713
ACCGTGGA | -0.124
AGTGGTGC | -0.0148
ACCCCCTG | -0.272
AGGTGAGC | -0.104
GCCTGACC | -0.0177
ATGACGAC | -0.0155
GTCAACCA | -0.176
ATCATCCC | 0.106
CGTTTATC | 0.07
AACCAACA | 0.152
CGTCATTA | 0.113
ACTAAACA | 0.0979
ATAGTGGG | 0.0056
ACCACGCG | -0.0119
CGCGTGGA | -0.0926
GTTAGGGA | 0.0242
CGTGGCAG | -0.0439
ACTTTCTC | -0.0867
GGTTTCAA | 0.0831

Sequence | PBM E-score
GCCCGGTA | -0.127
GTCGATCA | -0.0482
AATCTTGA | -0.147
ATTCGTTA | 0.165
ATTTTCCG | 0.249
CGTAAATA | -0.0234
ATTGAGCG | 0.0439
CGGACTGC | -0.17
AATGCATG | 0.174
CAGTTAAC | 0.117
AGGCATGG | -0.0771
ACCCATAA | 0.0509
GCTGCCCC | -0.205
AGATCGAG | 0.0728
GCCCCCTA | -0.212
AGCATGCC | -0.172
GGAAGTCA | -0.0228
AGTGCCTG | -0.0787
CACGCTAA | -0.149
CGCCCGCA | 0.229
AATGCTTA | 0.0576
AAACGAGA | 0.0619
GGGGTCAA | 0.0278
TGGCAGAA | 0.0411
CCCTGTTC | 0.0778

Sequence | PBM E-score
CGAATCTA | 0.0531
GATCCCCA | 0.0707
CAACTGGG | -0.0587
GAGCACAC | -0.173
ATCTCGCG | 0.282
CTTCCAAG | 0.00164
GTTGCATA | 0.0883
ATGTTAAC | 0.0602
AAGCCATG | -0.0445
ATCTACTA | 0.115
AGTCTCAG | -0.0158
ACTGTTTA | -0.0842
GACACCGA | -0.122
AGCAGCTA | 0.173
AACCCACC | 0.0928
CACTCAGG | 0.0769
AACATAAG | 0.246
GATACTTA | 0.0774
CCAATCGA | 0.135
CCTAAAGC | -0.0871
AATCGCTA | -0.14
GCCCTGAA | 0.22
TGAACTCA | 0.0191
GGGAGTAC | -0.155
ATCCATAC | -0.00501

Sequence | PBM E-score
ACCCAACG | 0.162
ATGAAATA | 0.14
GGGTAGAA | -0.196
CCCATTCC | -0.124
ATATGGAC | 0.0806
CTTCAACC | 0.0408
GCAGGCCC | -0.189
AAGATTAG | -0.0352
AAACTCCC | -0.0959
GATGTCCC | 0.081
ATTTTCGA | 0.0301
GTGGTCTA | -0.14
GCCTTAGC | -0.107
CCTAACCC | -0.314
GTCAGGAC | 0.0517
AACTAGAA | 0.105
ACGATGCT | -0.142
ACACCGTC | -0.175
AGCGCCCG | -0.141
CTTGGGAA | -0.0729
CACGGCCC | -0.253
CTAGTAGA | -0.0726
AATAGAAC | 0.0737
GCGTTGAA | 0.0451
CCGCGCCA | -0.00589

Sequence | PBM E-score
CAGTTGAC | 0.0781
ACACAAAG | 0.161
CAAATCAA | 0.144
CCGCACAC | -0.00671
TCGAGCGA | 0.18
CAAGTATG | 0.216
CCTGATTA | 0.143
AGATCGGA | -0.0196
ACAGTACA | 0.0768
AATTGTCC | 0.0909
CCCGGGCC | -0.13
GTGTATAA | -0.0972
GCCCTCGC | 0.0365
ATGTGGCG | 0.108
CCGACGCC | -0.0243
AATAGGGT | 0.157
CACACTCA | 0.2
CCGACTGA | -0.177
ATACACTA | 0.205
AGCCTCCC | -0.381
ATTCAACA | 0.121
AGCCTTTC | -0.125
GAAGTCAA | 0.122
AATCCTTA | -0.0973
CCTTTAAC | -0.0434

Sequence | PBM E-score
CCCCCCCG | -0.466
ATTCGCGA | 0.176
ATAGTCAT | -0.00142
AAAAGCCT | -0.283
CGAATCCG | 0.02
CAGATATA | 0.111
CACGCTCC | -0.265
CTTGAGGC | -0.0455
AACAGTAC | 0.0545
ACGCTGGC | -0.00592
AAGTACGC | -0.0553
ATTGTACA | -0.0175
TTATGCAA | 0.1
ACTGAACG | -0.215
GTGACAGA | -0.0305
CGCCGGCA | 0.0711
ACGGGCCA | -0.105
CAAAGGCC | -0.158
CCCCTGCG | -0.0622
GACTGTGC | -0.176
CCGACCCA | 0.00941
ACCCCGTA | 0.173
AAAAAAAC | -0.0597
GAAACGAC | 0.161
ACCTAACA | 0.0119

Sequence | PBM E-score
CAAGGACG | -0.221
ACTTGAGG | -0.0464
GCTGCACA | -0.124
AGACAGTG | 0.00117
AGGGAATG | 0.032
AGAATTCT | 0.105
CCTGTCGC | -0.0429
ATGTCTGG | 0.0226
AGCACAGA | 0.132
GAAATCTA | 0.0661
AGACTTTA | -0.178
GAATAGCA | 0.0807
GTAGTTTA | 0.138
CCTTTTTC | 0.0818
CGCTAGTC | -0.343
GGCAGAAA | 0.286
GTCCTCAC | -0.0771
AACGGCTA | 0.0404
AAGCAATA | 0.0458

Quoted at random: three records from the list
Sequence | PBM E-score
GGGGTCAA | 0.0278
GTAGTTTA | 0.138
CCCCCCCG | -0.466
